Assay [1] concerns the target T1, recombinant E-selectin (UniProt P16581).
T1 sequence (looked up): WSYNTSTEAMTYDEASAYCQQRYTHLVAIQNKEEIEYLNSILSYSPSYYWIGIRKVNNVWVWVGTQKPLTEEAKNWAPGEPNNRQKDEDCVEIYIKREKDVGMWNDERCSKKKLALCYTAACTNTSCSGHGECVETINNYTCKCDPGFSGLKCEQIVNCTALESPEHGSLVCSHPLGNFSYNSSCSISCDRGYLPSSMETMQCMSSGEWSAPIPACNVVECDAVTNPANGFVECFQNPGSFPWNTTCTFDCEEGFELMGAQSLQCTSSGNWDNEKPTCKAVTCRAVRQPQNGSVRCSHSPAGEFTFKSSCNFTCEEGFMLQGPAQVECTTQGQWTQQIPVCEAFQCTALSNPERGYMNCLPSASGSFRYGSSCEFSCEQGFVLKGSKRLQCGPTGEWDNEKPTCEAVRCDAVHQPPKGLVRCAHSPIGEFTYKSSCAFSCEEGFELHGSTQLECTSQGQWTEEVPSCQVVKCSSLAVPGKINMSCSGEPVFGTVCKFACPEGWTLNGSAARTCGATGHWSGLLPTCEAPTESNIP
Description: in vitro cell adhesion assay, engineered MSCs on P&E selectin (FIG. 7 bar graph).

The target in assay [2] is T1, recombinant E-selectin. Description: in vitro cell adhesion assay, engineered MSCs on recombinant P&E selectin (FIG. 7).
For assay [3], the target named is T1, recombinant E-selectin. Description: in vitro cell adhesion assay of engineered MSCs (FIG. 49D); substrate taken from the next sentence (P and E selectin).

Results are given in words; binding and its absence hold for the method and conditions named. Some binding calls cover weakened binding; strength is not graded here.

B1: PSGL-1 expressed on engineered MSCs together with FUT7 (ligand, UniProt Q14242 42-412, looked up)
chain: QATEYEYLDYDFLPETEPPEMLRNSTDTTPLTGPGTPESTTVEPAARRSTGLDAGGAVTELTTELANMGNLSTDSAAMEIQTTQPAATEAQTTQPVPTEAQTTPLAATEAQTTRLTATEAQTTPLAATEAQTTPPAATEAQTTQPTGLEAQTTAPAAMEAQTTAPAAMEAQTTPPAAMEAQTTQTTAMEAQTTAPEATEAQTTQPTATEAQTTPLAAMEALSTEPSATEALSMEPTTKRGLFIPFSVSSVTHKGIPMAASNLSVNYPVGAPDHISVKQCLLAILILALVATIFFVCTVVLAVRLSRKGHMYPVRNYSPTEMVCISSLLPDGGEGPSATANGGLSKAKSPGLTPEPREDREGDDLTLHSFLP
As for B1, the binding result in assay [1] and in assay [2] was “binds” in each case.

B2: PSGL-1 expressed on engineered MSCs together with FUT7 and ST3GAL4 (ligand, UniProt Q14242 42-412, looked up)
chain: QATEYEYLDYDFLPETEPPEMLRNSTDTTPLTGPGTPESTTVEPAARRSTGLDAGGAVTELTTELANMGNLSTDSAAMEIQTTQPAATEAQTTQPVPTEAQTTPLAATEAQTTRLTATEAQTTPLAATEAQTTPPAATEAQTTQPTGLEAQTTAPAAMEAQTTAPAAMEAQTTPPAAMEAQTTQTTAMEAQTTAPEATEAQTTQPTATEAQTTPLAAMEALSTEPSATEALSMEPTTKRGLFIPFSVSSVTHKGIPMAASNLSVNYPVGAPDHISVKQCLLAILILALVATIFFVCTVVLAVRLSRKGHMYPVRNYSPTEMVCISSLLPDGGEGPSATANGGLSKAKSPGLTPEPREDREGDDLTLHSFLP
modifications: sialic acid added post-translationally by ST3GAL4 (sites not given)
With B2, in assay [3], the binding entry is “binds”.

Values taken from patent US20250361488A1.
